Reference: US8273855
Results are given in words; binding and its absence hold for the method and conditions named. For some of these results: In cells and extracts the contact can be indirect. Some results given as binding are weak or reduced against the parent protein; the word gives no strength. For some of these results: Where a sequence is shown, tags or fusion partners need not be part of it.

By UniProt entry, the sequences of proteins in these tests, tags left out. Residues count along the entry.
UniProt Q07008, residues 19-2531: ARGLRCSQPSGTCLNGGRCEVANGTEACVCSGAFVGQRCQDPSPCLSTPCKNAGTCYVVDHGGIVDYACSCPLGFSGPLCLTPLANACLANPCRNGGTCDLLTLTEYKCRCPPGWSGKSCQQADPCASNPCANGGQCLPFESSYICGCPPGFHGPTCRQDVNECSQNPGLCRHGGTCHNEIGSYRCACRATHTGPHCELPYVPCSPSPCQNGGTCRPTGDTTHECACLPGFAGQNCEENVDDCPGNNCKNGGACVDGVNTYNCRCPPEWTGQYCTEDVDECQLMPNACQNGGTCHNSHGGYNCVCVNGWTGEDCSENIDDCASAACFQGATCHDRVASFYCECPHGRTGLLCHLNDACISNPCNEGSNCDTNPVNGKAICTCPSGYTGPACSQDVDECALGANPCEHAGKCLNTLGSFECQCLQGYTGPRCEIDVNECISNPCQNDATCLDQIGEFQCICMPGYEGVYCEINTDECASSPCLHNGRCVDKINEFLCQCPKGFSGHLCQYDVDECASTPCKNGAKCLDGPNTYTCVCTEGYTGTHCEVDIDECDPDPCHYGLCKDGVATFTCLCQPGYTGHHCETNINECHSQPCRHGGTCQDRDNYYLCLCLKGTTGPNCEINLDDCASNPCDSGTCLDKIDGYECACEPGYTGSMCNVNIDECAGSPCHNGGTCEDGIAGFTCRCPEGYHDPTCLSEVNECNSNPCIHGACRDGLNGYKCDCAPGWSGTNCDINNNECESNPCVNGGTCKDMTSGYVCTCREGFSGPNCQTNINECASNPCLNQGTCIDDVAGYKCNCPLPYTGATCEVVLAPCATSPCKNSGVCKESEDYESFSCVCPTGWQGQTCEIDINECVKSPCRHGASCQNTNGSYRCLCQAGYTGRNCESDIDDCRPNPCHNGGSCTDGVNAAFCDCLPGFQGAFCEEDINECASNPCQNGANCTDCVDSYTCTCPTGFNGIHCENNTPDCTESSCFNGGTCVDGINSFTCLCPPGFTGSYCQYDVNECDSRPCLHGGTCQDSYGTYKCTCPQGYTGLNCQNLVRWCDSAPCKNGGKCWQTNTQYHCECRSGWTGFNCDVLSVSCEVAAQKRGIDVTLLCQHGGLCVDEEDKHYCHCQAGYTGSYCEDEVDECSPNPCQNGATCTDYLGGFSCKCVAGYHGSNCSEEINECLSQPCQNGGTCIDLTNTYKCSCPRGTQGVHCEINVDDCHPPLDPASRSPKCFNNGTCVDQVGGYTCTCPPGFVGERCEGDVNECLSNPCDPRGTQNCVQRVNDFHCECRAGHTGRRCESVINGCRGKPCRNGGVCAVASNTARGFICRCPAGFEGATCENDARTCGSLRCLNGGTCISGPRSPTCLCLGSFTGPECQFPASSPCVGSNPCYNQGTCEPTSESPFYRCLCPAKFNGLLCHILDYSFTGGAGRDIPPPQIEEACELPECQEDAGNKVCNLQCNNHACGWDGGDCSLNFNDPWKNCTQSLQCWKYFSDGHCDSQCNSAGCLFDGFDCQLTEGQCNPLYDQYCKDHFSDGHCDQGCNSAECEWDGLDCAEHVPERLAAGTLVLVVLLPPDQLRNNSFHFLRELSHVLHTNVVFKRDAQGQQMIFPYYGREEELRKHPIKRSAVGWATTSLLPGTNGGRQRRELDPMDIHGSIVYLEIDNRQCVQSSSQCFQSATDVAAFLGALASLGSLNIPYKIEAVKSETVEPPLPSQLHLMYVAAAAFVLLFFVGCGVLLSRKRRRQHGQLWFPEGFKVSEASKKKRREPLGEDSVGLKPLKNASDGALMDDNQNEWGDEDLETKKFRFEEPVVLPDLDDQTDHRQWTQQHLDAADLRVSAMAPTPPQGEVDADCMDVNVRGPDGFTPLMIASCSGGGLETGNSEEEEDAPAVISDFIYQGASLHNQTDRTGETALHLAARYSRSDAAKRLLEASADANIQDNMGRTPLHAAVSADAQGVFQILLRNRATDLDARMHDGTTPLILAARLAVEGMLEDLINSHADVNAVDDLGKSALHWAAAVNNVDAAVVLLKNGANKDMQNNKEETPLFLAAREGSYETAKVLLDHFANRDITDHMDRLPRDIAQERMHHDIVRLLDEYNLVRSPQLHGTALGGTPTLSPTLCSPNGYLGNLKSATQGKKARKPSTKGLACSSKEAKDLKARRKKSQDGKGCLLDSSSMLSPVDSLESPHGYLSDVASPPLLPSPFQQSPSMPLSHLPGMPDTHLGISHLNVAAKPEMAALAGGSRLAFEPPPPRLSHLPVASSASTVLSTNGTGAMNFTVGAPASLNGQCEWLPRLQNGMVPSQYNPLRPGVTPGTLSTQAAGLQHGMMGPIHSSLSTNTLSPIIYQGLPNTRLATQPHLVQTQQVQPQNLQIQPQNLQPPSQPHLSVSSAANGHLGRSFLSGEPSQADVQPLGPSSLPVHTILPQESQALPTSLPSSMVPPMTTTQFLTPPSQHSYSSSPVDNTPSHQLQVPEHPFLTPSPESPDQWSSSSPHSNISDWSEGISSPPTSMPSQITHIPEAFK
UniProt Q01705, residues 19-2531: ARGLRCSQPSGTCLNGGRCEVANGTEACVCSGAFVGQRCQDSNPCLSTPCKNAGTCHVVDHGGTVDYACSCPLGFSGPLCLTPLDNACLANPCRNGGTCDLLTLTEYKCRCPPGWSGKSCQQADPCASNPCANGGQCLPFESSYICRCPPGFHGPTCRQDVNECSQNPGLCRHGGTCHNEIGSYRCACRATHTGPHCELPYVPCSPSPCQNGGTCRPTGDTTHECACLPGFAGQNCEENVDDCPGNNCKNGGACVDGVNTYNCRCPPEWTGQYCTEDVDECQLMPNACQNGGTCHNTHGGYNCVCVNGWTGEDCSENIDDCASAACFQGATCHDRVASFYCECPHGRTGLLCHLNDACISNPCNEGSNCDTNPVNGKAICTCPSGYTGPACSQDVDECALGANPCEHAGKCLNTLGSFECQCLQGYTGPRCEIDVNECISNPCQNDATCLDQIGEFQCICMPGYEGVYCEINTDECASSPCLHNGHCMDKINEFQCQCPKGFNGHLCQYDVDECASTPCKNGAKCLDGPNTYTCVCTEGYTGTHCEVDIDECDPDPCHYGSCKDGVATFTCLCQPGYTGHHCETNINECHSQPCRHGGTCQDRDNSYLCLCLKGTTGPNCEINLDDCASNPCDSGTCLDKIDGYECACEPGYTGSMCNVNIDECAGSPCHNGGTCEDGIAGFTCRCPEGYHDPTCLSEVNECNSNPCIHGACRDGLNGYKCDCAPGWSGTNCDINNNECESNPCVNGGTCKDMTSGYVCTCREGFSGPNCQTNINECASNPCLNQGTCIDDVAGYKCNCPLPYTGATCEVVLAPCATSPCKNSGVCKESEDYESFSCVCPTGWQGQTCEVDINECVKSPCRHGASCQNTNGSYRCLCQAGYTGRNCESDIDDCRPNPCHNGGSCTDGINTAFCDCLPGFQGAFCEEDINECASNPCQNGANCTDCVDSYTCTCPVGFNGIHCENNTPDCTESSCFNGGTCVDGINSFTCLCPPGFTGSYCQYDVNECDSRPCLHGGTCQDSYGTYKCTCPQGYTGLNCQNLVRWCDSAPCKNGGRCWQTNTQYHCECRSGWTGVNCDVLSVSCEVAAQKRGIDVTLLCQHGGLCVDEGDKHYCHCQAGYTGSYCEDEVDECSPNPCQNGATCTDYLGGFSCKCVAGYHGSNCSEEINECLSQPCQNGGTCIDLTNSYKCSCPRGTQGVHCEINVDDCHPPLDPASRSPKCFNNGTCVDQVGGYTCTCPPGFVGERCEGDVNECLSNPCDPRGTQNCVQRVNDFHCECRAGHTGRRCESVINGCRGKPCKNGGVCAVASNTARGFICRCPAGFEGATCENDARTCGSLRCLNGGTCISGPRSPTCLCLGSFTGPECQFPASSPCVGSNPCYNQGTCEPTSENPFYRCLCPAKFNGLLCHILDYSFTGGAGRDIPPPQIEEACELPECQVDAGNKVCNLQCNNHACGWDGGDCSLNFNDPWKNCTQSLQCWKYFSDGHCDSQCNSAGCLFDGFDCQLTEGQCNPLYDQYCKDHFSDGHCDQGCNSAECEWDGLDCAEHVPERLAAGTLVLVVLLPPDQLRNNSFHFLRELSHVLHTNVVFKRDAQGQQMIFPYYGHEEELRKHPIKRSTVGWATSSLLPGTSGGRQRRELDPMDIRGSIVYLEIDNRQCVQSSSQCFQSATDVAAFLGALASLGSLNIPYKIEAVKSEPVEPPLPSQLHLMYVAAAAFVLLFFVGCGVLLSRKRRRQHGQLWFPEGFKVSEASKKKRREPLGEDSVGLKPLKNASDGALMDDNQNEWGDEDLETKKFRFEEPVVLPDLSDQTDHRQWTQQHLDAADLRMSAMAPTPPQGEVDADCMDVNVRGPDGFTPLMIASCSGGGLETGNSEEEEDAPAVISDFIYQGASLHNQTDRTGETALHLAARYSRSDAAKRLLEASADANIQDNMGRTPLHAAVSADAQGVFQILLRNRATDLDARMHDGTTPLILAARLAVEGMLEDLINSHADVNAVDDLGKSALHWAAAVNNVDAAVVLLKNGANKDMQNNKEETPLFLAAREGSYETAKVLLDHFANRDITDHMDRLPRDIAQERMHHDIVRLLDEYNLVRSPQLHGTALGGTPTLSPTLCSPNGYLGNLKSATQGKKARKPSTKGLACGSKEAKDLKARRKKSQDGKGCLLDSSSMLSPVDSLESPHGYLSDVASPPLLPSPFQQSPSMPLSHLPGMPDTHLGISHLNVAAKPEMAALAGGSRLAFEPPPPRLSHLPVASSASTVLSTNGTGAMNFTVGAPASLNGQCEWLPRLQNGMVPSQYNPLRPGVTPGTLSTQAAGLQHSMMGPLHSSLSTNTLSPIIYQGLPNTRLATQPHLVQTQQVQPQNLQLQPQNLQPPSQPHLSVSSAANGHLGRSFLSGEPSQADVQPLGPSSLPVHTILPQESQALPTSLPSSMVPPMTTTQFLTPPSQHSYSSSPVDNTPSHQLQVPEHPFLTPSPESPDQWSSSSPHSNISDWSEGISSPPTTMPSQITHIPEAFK

Key:
[1] = target: T1, F3/contactin (native, rat brain) (rat) (UniProt Q63198); test: co-immunoprecipitation from adult rat brain membrane extracts, Western blot
T1 sequence (looked up): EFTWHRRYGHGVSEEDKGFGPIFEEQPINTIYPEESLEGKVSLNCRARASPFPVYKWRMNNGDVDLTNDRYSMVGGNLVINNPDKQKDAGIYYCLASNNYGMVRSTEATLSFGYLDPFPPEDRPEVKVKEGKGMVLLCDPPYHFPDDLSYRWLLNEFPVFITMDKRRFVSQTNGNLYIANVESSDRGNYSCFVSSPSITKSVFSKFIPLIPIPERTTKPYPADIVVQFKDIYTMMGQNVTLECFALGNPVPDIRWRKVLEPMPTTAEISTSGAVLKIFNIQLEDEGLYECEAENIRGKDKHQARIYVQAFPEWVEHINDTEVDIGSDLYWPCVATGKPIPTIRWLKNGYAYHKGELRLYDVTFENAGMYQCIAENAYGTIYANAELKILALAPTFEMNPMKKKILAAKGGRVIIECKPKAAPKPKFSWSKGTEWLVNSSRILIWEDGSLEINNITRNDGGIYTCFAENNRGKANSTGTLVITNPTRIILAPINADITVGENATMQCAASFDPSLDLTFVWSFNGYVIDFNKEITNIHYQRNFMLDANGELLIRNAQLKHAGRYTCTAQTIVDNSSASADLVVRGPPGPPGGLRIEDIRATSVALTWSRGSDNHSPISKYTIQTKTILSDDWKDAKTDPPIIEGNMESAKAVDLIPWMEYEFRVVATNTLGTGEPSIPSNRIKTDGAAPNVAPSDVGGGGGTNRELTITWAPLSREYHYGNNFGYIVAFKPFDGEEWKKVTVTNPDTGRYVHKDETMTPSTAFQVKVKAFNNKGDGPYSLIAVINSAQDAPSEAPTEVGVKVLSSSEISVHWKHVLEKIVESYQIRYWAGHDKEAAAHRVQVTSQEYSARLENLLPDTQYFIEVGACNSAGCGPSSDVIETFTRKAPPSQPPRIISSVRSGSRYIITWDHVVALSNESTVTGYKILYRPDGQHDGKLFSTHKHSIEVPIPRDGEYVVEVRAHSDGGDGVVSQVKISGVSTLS

[2] = target: Notch1 on OLN-93 cells (rat) (UniProt Q07008); test: OLN-93 cell adhesion to NB-3-His substrate with antibody blockade
[3] = target: Notch2 on OLN-93 cells (rat) (UniProt Q9QW30); test: as above
[4] = target: murine Notch1 on transfected HeLa cells (mouse) (UniProt Q01705); test: adhesion of mouse Notch1-transfected HeLa cells to NB-3-His substrate
[5] = target: Notch1 (native, rat brain) (rat) (UniProt Q07008); test: co-immunoprecipitation from rat brain lysate (legend of FIG. 15)
[6] = target: Notch1 (native, rat brain) (rat) (UniProt Q07008); test: co-immunoprecipitation from rat brain lysates (legend of FIG. 10)
[7] = target: Notch1 (native, rat brain) (rat) (UniProt Q07008); test: co-immunoprecipitation from rat brain membrane preparations in 2% Triton X-100
[8] = target: Notch1 (native, rat brain) (rat) (UniProt Q07008); test: co-immunoprecipitation from rat brain lysate (legend of FIG. 15, second printing)
[9] = target: Notch1 (native, rat brain) (rat) (UniProt Q07008); test: co-immunoprecipitation from rat brain lysates (legend of FIG. 10, second printing)
[10] = target: Notch1 (native, rat brain) (rat) (UniProt Q07008); test: co-immunoprecipitation from rat brain membrane samples with Notch1 antibody, and reciprocal assay

Measured: binding

B1: Caspr (native, adult rat brain membrane extracts) (receptor, UniProt P97846 21-1381, looked up)
chain: WGYYGCNEELVGPLYARSLGASSYYGLFTTARFARLHGISGWSPRIGDPNPWLQIDLMKKHRIRAVATQGAFNSWDWVTRYMLLYGDRVDSWTPFYQQGHNATFFGNVNDSAVVRHDLHYHFTARYIRIVPLAWNPRGKIGLRLGIYGCPYTSNILYFDGDDAISYRFQRGASQSLWDVFAFSFKTEEKDGLLLHTEGSQGDYVTLELQGAHLLLHMSLGSSPIQPRPGHTTVSAGGVLNDLSWHYVRVDRYGREANLTLDGYVHRFVLNGDFERLNLENEIFIGGLVGAARKNLAYRHNFRGCIENVIYNRINIAEMAVQRHSRITFEGNVAFRCLDPVPHPINFGGPHNFVQVPGFPRRGRLAVSFRFRTWDLTGLLLFSRLGDGLGHVELMLSEGQVNVSIAQTGRKKLQFAAGYRLNDGFWHEVNFVAQENHAVISIDDVEGAEVRVSYPLLIRTGTSYFFGGCPKPASRWGCHSNQTAFHGCMELLKVDGQLVNLTLVEFRKLGYFAEVLFDTCGITDRCSPNMCEHDGRCYQSWDDFICYCELTGYKGVTCHEPLYKESCEAYRLSGKYSGNYTIDPDGSGPLKPFVVYCDIRENRAWTVVRHDRLWTTRVTGSSMDRPFLGAIQYWNASWEEVSALANASQHCEQWIEFSCYNSRLLNTAGGYPYSFWIGRNEEQHFYWGGSQPGIQRCACGLDQSCIDPALHCNCDADQPQWRTDKGLLTFVDHLPVTQVVIGDTNRSSSEAQFFLRPLRCYGDRNSWNTISFRTGAALRFPPIRANHSLDVSFYFRTSAPSGVFLENMGGPFCQWRRPYVRVELNTSRDVVFAFDIGNGDENLTVHSDDFEFNDDEWHLVRAEINVKQARLRVDHRPWVLRPMPLQTYIWLEYDQPLYVGSAELKRRPFVGCLRAMRLNGVTLNLEGRANASEGTFPNCTGHCTHPRFPCFHGGRCVERYSYYTCDCDLTAFDGPYCNHDIGGFFETGTWMRYNLQSALRSAAQEFSHMLSRPVPGYEPGYIPGYDTPGYVPGYHGPGYRLPDYPRPGRPVPGYRGPVYNVTGEEVSFSFSTSSAPAVLLYVSSFVRDYMAVLIKEDGTLQLRYQLGTSPYVYQLTTRPVTDGQPHSVNITRVYRNLFIQVDYFPLTEQKFSLLVDSQLDSPKALYLGRVMETGVIDPEIQRYNTPGFSGCLSGVRFNNVAPLKTHFRTPRPMTAELAEAMRVQGELSESNCGAMPRLVSEVPPELDPWYLPPDFPYYHDDGWIAILLGFLVAFLLLGLVGMLVLFYLQNHRYKGSYHTNEPKATHDSHPGGKAPLPPSGPAQAPAPTPAPTQVPTPAPAPASGPGPRDQNLPQILEESRSE
binds: [1]

B2: NB-3-His (ligand, rat)
chain: ESRFTRPIFIQEPQDVIFPLDLSRSEIILSCTASGYPSPHYRWKQNGTDIDFSMTYHYRLDGGSLAISSPRTDQDIGIYQCLATNPVGTILSRKAKLQFAYIEDFETKSRSTVSVREGQGVVLLCGPPPHFGELSYDWTFNDNPLYVQEDKRRFVSQNTGNLYIAKVEPSDVGNYTCFVTNKEAHRSVQGPPTPLVQRTDGVMGEYEPKIEVRFPETIQAAKDSSVKLECFALGNPVPDISWRRLDGSPMPGKVKYSNSQATLEIPKFQQEDEGFYECVAGNLRGRNLAKGQLIFYAPPEWEQKIQNTYLSIYDSLFWECKASGNPNPSYTWLKNGERLNTEERIQTENGTLIITMLNVSDSGIYQCAAENKYQTIYANAELRVLASAPDFSKNPIKKISVVQVGGDISIECKPNAFPKASISWKRGTENLKQSKRVFFLEDGSLKICNVTRSDAGSYTCVATNQFGNGKSSGSLIVKERTVITVPPSKMDVTVGESIVLPCQVSHDPTMEVLFVWYFNGDVIDLKKGVAHFERIGGESVGDLMIRNIQLGHSGKYLCTVQTTLERLSAVADIIVRGPPGPPEDVKVEHISSTTSQLSWRPGPDNNSPIQIFTIQTRTPFSVGWQAVATVPEILNGQTYNATVIGLSPWVEYEFRVVAGNNIGIGEPSKPSELLRTKASIPNVAPVNINGGGGSRSELVITWEPIPEELQNGEGFGYIIMFRPVGSTTWMKEKVALVESSKFIYRNESIMPLSPFEVKVGVYNNEGEGSLSTVSIVYSGEDEPRLAPRGTSVQSFSASDMEVSWNAIAWNRNTGRVLGYEVLYWTDNSKESMIGKIRVSGNVTTKNITGLRANTIYFASVRAYNTAGTGPSSPPVNVTTKKSPPSQPPANIAWKLSNSKLCLNWEHVKTMENESEVLGYKILYRQNRQSKTHVLETNNTSAELLVPFEEDYLIEIRTVSDGGDGSSSEEIRIPKMSSLSSHHHHHH
binds: [2] | [3] | [4]

B3: F3/contactin (native, rat brain) (ligand, UniProt Q63198 21-1001, looked up)
chain: EFTWHRRYGHGVSEEDKGFGPIFEEQPINTIYPEESLEGKVSLNCRARASPFPVYKWRMNNGDVDLTNDRYSMVGGNLVINNPDKQKDAGIYYCLASNNYGMVRSTEATLSFGYLDPFPPEDRPEVKVKEGKGMVLLCDPPYHFPDDLSYRWLLNEFPVFITMDKRRFVSQTNGNLYIANVESSDRGNYSCFVSSPSITKSVFSKFIPLIPIPERTTKPYPADIVVQFKDIYTMMGQNVTLECFALGNPVPDIRWRKVLEPMPTTAEISTSGAVLKIFNIQLEDEGLYECEAENIRGKDKHQARIYVQAFPEWVEHINDTEVDIGSDLYWPCVATGKPIPTIRWLKNGYAYHKGELRLYDVTFENAGMYQCIAENAYGTIYANAELKILALAPTFEMNPMKKKILAAKGGRVIIECKPKAAPKPKFSWSKGTEWLVNSSRILIWEDGSLEINNITRNDGGIYTCFAENNRGKANSTGTLVITNPTRIILAPINADITVGENATMQCAASFDPSLDLTFVWSFNGYVIDFNKEITNIHYQRNFMLDANGELLIRNAQLKHAGRYTCTAQTIVDNSSASADLVVRGPPGPPGGLRIEDIRATSVALTWSRGSDNHSPISKYTIQTKTILSDDWKDAKTDPPIIEGNMESAKAVDLIPWMEYEFRVVATNTLGTGEPSIPSNRIKTDGAAPNVAPSDVGGGGGTNRELTITWAPLSREYHYGNNFGYIVAFKPFDGEEWKKVTVTNPDTGRYVHKDETMTPSTAFQVKVKAFNNKGDGPYSLIAVINSAQDAPSEAPTEVGVKVLSSSEISVHWKHVLEKIVESYQIRYWAGHDKEAAAHRVQVTSQEYSARLENLLPDTQYFIEVGACNSAGCGPSSDVIETFTRKAPPSQPPRIISSVRSGSRYIITWDHVVALSNESTVTGYKILYRPDGQHDGKLFSTHKHSIEVPIPRDGEYVVEVRAHSDGGDGVVSQVKISGVSTLS
binds: [5] | [6] | [7] | [8] | [9] | [10]
